We go through one molecule from US20090018021A1, “Methyl jasmonate decreases fruit detachment force of grapes” (Regents of the University of California, priority 2006, published 2009).

The series concerns Crimson Seedless berries. In words: Berry fresh weight and juice soluble solids, Crimson Seedless experiment. The following applies: for Berry wt / Soluble solids: fourteen days after treatment. Type of series: in vivo, grape.

Take `CC/C=C\CC1C(=O)CCC1CC(=O)OC` (centres unmarked) [MeJA, methyl jasmonate]: where the note is “1125-4500 ppm, 14 DAT”, the “Effect on berry fresh weight” value is listed as “did not affect berry fresh weight”. For the same molecule, the Berry wt reads like this: (1125 ppm) 5.41 g; (2250 ppm) 5.96 g; (4500 ppm) 5.54 g. For the same molecule, the Soluble solids was determined as 19.76 ab Brix (1125 ppm), 19.30 b Brix (2250 ppm) and 19.28 b Brix (4500 ppm). For the setting “>2250 ppm, 14 DAT”, the “Effect on juice soluble solids” value is recorded as “slightly reduced juice soluble solids”.
